Experimental data as given in PMC4799797.
These are yes or no findings as the source states them, for the method shown. In cells and extracts the contact can be indirect. Some binding calls cover weakened binding; strength is not graded here. Sequences can lack the tags named with a protein.

By UniProt entry, the sequences of proteins in these tests, tags left out. Residues count along the entry.
UniProt Q01974, residues 34-943: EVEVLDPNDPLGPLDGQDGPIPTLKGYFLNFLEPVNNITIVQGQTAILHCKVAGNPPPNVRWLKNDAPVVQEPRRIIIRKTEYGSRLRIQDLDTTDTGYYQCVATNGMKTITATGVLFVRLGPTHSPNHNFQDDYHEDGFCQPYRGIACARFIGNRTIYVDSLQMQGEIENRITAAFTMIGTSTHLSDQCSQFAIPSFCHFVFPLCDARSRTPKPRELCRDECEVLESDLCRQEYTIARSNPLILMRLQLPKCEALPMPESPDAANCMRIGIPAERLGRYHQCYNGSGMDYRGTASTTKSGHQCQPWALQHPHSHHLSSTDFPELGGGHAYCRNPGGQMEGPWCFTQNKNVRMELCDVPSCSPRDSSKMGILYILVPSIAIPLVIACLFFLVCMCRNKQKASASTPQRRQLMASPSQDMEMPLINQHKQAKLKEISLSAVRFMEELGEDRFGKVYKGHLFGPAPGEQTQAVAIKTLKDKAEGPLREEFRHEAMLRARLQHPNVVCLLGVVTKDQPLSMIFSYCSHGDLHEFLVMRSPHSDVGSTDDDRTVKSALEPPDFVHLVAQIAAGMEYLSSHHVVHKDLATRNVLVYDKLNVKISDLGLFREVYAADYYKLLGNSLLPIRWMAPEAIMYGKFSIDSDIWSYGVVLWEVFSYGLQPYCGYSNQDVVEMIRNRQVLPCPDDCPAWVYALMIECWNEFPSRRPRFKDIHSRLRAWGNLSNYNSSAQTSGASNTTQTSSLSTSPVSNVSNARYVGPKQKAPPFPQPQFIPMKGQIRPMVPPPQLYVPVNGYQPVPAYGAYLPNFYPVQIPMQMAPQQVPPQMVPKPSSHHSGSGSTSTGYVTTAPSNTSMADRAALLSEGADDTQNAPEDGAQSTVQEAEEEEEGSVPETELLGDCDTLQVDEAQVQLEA

Target: Flag-tagged ROR2 (UniProt Q01974)
Experiment: co-IP; MCF-7 cells co-transfected with ROR2-Flag and Dvl1-myc, Dvl2-myc or Dvl3-myc; 24 h later stimulated 45 min with control supernatant or Wnt5a-conditioned medium; lysis in 10 mM HEPES pH 7.4, 150 mM NaCl, 0.5 % NP-40, 0.5 % OGP; immunoprecipitation with anti-Flag antibody and anti-Flag M2 magnetic beads; detection with anti-myc and anti-Flag

binding: binds
B1: myc-tagged Dvl1 (protein, UniProt O14640 1-695)
chain: MAETKIIYHMDEEETPYLVKLPVAPERVTLADFKNVLSNRPVHAYKFFFKSMDQDFGVVKEEIFDDNAKLPCFNGRVVSWLVLAEGAHSDAGSQGTDSHTDLPPPLERTGGIGDSRPPSFHPNVASSRDGMDNETGTESMVSHRRERARRRNREEAARTNGHPRGDRRRDVGLPPDSASTALSSELESSSFVDSDEDGSTSRLSSSTEQSTSSRLIRKHKRRRRKQRLRQADRASSFSSITDSTMSLNIVTVTLNMERHHFLGISIVGQSNDRGDGGIYIGSIMKGGAVAADGRIEPGDMLLQVNDVNFENMSNDDAVRVLREIVSQTGPISLTVAKCWDPTPRSYFTVPRADPVRPIDPAAWLSHTAALTGALPRYGTSPCSSAVTRTSSSSLTSSVPGAPQLEEAPLTVKSDMSAVVRVMQLPDSGLEIRDRMWLKITIANAVIGADVVDWLYTHVEGFKERREARKYASSLLKHGFLRHTVNKITFSEQCYYVFGDLCSNLATLNLNSGSSGTSDQDTLAPLPHPAAPWPLGQGYPYQYPGPPPCFPPAYQDPGFSYGSGSTGSQQSEGSKSSGSTRSSRRAPGREKERRAAGAGGSGSESDHTAPSGVGSSWRERPAGQLSRGSSPRSQASATAPGLPPPHPTTKAYTVVGGPPGGPPVRELAAVPPELTGSRQSFQKAMGNPCEFFVDIM
